From the supplement of paper PMC10849652
This is one part of the list.

Chains of the proteins cited; added tags and fusions are not shown. Lines headed by an entry give the natural chain unless they say otherwise; changes in a name come on top.
UniProt Q9BTE1, whole entry, looked up: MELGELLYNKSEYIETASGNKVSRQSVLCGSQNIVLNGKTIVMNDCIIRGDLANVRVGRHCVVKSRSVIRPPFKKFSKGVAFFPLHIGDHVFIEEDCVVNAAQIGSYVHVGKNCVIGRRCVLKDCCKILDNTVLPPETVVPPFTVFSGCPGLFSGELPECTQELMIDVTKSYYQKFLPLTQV
UniProt Q7Z7A3: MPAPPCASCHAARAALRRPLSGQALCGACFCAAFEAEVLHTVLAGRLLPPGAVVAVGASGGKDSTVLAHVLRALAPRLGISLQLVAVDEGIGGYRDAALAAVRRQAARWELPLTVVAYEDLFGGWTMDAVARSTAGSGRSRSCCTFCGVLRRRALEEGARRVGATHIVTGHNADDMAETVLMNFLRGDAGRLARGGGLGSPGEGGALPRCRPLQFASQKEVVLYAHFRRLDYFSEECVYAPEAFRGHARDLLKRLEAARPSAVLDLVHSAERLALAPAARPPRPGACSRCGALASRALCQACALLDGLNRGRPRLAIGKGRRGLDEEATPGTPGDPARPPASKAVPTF
UniProt P00167, whole entry, looked up: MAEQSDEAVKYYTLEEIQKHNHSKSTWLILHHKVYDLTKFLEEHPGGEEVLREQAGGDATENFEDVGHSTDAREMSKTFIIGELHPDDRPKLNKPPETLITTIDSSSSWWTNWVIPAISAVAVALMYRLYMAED
UniProt Q96GG9: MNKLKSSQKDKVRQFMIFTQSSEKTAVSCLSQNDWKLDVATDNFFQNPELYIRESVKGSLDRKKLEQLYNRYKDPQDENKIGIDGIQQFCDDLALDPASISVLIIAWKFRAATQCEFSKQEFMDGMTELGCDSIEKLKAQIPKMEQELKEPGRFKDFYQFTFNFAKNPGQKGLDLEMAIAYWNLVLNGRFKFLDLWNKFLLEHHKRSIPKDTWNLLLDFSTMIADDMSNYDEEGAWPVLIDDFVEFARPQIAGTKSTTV
UniProt P50461: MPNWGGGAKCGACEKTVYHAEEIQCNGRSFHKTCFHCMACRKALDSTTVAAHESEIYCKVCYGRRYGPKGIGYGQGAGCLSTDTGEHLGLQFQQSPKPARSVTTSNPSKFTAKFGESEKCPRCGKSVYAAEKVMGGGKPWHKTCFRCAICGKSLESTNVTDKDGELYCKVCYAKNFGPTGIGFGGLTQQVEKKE
UniProt Q9UJU6: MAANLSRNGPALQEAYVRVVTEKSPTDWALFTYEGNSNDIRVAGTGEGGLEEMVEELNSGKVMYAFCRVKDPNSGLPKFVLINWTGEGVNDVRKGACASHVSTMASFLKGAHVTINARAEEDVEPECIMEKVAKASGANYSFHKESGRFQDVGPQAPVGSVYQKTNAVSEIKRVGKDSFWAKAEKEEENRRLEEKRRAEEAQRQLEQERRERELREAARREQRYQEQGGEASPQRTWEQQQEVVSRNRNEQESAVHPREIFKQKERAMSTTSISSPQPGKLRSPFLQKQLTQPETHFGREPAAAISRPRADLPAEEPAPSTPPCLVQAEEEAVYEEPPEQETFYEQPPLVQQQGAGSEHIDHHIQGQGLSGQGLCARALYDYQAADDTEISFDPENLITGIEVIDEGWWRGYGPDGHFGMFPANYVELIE
UniProt Q9UBR2: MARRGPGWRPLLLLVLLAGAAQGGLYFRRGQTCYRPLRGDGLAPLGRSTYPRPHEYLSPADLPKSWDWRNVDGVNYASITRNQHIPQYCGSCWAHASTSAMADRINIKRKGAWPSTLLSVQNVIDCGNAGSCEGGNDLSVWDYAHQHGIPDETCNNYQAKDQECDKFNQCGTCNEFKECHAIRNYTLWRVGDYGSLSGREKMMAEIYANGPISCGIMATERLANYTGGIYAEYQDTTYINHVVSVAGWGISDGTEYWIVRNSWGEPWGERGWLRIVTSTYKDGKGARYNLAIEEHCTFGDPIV
UniProt Q8WUE5: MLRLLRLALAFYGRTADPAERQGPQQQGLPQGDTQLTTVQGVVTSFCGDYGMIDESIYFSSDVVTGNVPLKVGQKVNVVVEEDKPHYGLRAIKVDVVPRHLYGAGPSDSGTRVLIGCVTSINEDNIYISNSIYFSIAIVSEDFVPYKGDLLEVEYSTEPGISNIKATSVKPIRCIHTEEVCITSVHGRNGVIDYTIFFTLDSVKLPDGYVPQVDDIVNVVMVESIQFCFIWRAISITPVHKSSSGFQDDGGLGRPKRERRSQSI
UniProt Q9NV06: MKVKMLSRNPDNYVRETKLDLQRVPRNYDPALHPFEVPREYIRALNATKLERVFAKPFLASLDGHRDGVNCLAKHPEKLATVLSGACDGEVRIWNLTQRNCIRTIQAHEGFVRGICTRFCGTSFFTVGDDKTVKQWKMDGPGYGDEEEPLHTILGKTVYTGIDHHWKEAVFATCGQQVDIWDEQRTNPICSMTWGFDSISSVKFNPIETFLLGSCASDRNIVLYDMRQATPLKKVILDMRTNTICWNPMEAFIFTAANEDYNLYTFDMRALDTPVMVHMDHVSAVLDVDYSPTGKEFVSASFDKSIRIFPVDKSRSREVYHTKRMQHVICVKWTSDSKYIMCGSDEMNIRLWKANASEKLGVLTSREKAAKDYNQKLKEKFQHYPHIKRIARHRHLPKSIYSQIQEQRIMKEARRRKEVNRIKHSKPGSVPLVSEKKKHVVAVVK
UniProt Q8NBI2: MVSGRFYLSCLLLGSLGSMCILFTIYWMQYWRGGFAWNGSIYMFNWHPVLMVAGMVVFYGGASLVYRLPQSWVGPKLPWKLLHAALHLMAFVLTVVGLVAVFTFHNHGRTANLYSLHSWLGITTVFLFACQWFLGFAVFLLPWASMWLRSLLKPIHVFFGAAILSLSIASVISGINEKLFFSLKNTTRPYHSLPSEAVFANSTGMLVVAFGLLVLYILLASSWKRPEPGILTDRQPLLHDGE
UniProt P53634: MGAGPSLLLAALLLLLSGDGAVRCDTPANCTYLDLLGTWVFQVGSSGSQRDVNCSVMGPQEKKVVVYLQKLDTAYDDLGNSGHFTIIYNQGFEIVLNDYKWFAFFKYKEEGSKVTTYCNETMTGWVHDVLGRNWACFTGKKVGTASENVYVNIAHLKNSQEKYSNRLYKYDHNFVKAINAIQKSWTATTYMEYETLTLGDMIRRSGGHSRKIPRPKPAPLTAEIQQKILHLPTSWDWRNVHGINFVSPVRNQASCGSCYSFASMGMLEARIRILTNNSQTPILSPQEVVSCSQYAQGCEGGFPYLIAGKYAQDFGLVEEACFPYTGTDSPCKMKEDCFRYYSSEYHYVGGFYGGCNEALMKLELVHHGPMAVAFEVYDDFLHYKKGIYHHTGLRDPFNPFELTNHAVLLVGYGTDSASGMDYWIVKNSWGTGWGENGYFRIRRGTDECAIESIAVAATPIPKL
UniProt O60716: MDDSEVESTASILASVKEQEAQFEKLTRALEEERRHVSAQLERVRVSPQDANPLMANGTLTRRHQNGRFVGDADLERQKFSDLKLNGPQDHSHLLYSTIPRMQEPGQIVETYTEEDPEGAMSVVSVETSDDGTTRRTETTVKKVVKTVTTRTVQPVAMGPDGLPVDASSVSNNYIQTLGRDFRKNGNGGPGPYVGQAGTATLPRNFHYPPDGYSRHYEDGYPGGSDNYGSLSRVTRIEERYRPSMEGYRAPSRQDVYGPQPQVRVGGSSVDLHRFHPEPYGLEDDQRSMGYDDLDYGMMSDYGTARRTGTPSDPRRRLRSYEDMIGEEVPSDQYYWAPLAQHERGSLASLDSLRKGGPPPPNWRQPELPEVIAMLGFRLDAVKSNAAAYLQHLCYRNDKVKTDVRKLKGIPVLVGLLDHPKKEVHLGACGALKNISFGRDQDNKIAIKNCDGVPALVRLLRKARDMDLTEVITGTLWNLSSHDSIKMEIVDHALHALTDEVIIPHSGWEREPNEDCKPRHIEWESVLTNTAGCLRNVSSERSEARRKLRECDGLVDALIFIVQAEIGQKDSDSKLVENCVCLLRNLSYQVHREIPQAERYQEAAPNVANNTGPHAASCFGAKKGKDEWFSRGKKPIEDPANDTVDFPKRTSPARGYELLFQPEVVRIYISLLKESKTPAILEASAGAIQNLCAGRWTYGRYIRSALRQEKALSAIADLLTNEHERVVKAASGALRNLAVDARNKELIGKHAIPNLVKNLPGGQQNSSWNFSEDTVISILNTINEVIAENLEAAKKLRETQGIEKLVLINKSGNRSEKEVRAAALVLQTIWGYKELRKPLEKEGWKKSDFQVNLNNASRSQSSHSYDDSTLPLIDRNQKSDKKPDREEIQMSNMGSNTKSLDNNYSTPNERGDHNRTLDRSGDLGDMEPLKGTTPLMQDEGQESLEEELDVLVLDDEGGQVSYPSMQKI
UniProt P33240: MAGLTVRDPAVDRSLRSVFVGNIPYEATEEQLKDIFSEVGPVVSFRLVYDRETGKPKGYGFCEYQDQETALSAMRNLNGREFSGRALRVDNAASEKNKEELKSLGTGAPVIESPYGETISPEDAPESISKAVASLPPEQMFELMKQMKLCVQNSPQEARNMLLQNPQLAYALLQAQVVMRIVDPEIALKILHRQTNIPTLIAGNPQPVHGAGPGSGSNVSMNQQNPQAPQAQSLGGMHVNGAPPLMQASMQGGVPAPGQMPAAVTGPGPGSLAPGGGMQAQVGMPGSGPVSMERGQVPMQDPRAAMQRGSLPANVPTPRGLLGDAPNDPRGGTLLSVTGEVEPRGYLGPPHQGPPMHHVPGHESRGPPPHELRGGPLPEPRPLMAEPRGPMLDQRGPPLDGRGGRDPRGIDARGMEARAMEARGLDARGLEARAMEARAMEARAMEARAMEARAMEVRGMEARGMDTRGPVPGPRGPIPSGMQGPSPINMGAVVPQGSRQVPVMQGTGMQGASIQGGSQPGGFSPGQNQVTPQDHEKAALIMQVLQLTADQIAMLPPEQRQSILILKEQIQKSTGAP
UniProt P98082: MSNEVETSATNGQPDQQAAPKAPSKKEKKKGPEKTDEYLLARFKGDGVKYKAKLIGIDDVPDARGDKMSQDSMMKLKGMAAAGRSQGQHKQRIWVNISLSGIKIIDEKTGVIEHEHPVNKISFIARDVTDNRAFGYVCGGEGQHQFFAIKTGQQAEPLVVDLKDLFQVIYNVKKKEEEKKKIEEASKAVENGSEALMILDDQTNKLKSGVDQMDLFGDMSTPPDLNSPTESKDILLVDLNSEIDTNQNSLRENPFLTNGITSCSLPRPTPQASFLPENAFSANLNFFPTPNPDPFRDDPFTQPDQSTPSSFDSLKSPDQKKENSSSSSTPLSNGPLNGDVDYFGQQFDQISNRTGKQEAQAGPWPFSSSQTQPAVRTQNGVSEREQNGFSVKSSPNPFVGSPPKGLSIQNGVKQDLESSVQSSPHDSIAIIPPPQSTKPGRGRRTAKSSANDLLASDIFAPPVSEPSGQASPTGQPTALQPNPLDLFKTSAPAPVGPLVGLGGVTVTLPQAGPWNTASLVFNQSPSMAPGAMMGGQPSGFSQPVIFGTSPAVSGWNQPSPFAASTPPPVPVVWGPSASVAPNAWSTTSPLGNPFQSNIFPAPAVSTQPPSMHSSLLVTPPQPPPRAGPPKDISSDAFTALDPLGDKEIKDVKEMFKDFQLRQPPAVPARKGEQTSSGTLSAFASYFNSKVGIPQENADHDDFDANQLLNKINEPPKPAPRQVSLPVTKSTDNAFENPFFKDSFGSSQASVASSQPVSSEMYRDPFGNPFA
UniProt Q16850: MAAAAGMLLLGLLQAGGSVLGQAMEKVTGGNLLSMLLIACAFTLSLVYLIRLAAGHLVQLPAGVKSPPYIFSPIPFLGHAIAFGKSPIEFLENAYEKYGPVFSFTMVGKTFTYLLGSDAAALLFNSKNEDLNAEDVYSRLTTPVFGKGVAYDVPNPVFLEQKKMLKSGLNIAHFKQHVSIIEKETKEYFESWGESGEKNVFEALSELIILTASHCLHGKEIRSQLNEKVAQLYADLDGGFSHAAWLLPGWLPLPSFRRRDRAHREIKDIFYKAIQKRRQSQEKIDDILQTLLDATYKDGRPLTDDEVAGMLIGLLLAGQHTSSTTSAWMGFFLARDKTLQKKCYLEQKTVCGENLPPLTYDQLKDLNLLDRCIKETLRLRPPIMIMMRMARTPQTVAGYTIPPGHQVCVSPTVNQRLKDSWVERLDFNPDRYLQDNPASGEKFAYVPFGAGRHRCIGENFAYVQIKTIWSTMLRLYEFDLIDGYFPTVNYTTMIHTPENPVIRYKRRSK
UniProt P10619: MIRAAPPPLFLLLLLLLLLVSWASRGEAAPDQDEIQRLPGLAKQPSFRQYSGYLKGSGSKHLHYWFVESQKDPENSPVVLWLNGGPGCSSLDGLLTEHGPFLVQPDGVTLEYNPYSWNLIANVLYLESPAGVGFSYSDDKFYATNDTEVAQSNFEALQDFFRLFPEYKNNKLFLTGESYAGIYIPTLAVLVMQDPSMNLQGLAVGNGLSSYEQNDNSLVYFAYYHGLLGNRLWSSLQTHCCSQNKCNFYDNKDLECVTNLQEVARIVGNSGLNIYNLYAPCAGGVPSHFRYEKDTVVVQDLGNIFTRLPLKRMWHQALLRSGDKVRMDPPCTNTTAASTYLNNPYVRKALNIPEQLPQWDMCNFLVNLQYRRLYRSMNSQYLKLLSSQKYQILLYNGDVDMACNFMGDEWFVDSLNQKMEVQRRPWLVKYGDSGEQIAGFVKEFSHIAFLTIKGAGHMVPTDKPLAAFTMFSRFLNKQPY

compound: CCCS(=O)(=O)Nc1ccc(F)c(C(=O)c2c[nH]c3ncc(Cl)cc23)c1F; assay: log2 fold change, soluble protein after heating vs DMSO (PISA); higher = thermal stabilisation; K562 cells, 10 uM, 30 min; active = over 0.2 and 3.5 SD of the protein, either way, in both replicates (recomputed)
How it was run: (§1)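 Thermal stability values are relative to control samples and come from duplicates. They are expressed as log2 fold changes. For measurement, K562 cells (2×10^6 cells/mL) received 10 μM compound for 30 min, and aliquots were heated for 3 min over 48°C-58°C, pooled, and extracted at 4°C in PBS with 0.5% NP-40. Soluble protein, the supernatant after 21,000xg for 90 min, was quantified by TMTpro 16plex LC-MS/MS with equalised channel sums.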

log2 fold change, inactive:
DCTN5 (UniProt Q9BTE1) 0.011
CTU1 (UniProt Q7Z7A3) 0.034
CYSTM1 (UniProt Q9H1C7) 0.004
CYB5A (UniProt P00167) -0.038
DCUN1D1 (UniProt Q96GG9) 0.05
CYP46A1 (UniProt Q9Y6A2) -0.336
DCAF6 isoform 3 (UniProt Q58WW2) -0.047
CSRP3 (UniProt P50461) -0.002
DCAF4L2 (UniProt Q8NA75) -0.049
CTR9 (UniProt Q6PD62) 0.259
DBNL isoform 3 (UniProt Q9UJU6) 0.1
CTSZ (UniProt Q9UBR2) -0.045
DCTN1 isoform 4 (UniProt Q14203) 0.019
CYBA (UniProt P13498) 0.008
CT55 (UniProt Q8WUE5) 0.044
DCAF13 (UniProt Q9NV06) -0.062
CYB561A3 isoform 2 (UniProt Q8NBI2) 0.059
DBT (UniProt P11182) 0.015
CWF19L2 (UniProt Q2TBE0) -0.057
DBN1 isoform 3 (UniProt Q16643) 0.032
CTSH (UniProt P09668) -0.034
DCP2 (UniProt Q8IU60) 0.055
CTSC (UniProt P53634) 0.01
DAXX (UniProt Q9UER7) 0.031
CTNND1 (UniProt O60716) -0.065
DCAF16 (UniProt Q9NXF7) 0.185
CSTF2 (UniProt P33240) -0.053
CTSB (UniProt P07858) -0.008
DAPK1 isoform 3 (UniProt P53355) -0.203
DCTPP1 (UniProt Q9H773) -0.043
DAB2 (UniProt P98082) 0.064
CYP51A1 (UniProt Q16850) -0.015
CTSA (UniProt P10619) -0.039
CUX1 isoform 3 (UniProt P39880) 0.025

compound: CCCc1cc(C)[nH]c(=O)c1CNC(=O)c1cc(-c2ccnc(N3CCN(C)CC3)c2)cc2c1cnn2C(C)C; assay: as above
How it was run: as §1

log2 fold change, inactive:
DCTN5 (UniProt Q9BTE1) -0.02
CTU1 (UniProt Q7Z7A3) -0.035
CYSTM1 (UniProt Q9H1C7) 0.238
DCAF4 (UniProt Q8WV16) -0.061
CYB5A (UniProt P00167) -0.026
DCUN1D1 (UniProt Q96GG9) -0.028
CYP46A1 (UniProt Q9Y6A2) -0.162
DCAF6 isoform 3 (UniProt Q58WW2) 0.011
CSRP3 (UniProt P50461) -0.238
DCAF4L2 (UniProt Q8NA75) 0.138
DBNL isoform 3 (UniProt Q9UJU6) -0.006
CTSZ (UniProt Q9UBR2) -0.017
DCTN1 isoform 4 (UniProt Q14203) 0.102
CYBA (UniProt P13498) -0.028
CT55 (UniProt Q8WUE5) -0.19
DCAF13 (UniProt Q9NV06) 0.089
CYB561A3 isoform 2 (UniProt Q8NBI2) -0.086
DBT (UniProt P11182) -0.042
DBN1 isoform 3 (UniProt Q16643) -0.062
CTSH (UniProt P09668) 0.157
CTSC (UniProt P53634) 0.03
CTNND1 (UniProt O60716) 0.186
DCAF16 (UniProt Q9NXF7) 0.042
CSTF2 (UniProt P33240) 0.004
CTSB (UniProt P07858) -0.025
DAPK1 isoform 3 (UniProt P53355) -0.278
DCTPP1 (UniProt Q9H773) -0.009
CWC25 (UniProt Q9NXE8) 0.092
CYP2S1 isoform 2 (UniProt Q96SQ9) -0.016
DAB2 (UniProt P98082) 0.036
CYP51A1 (UniProt Q16850) 0.07
CTSA (UniProt P10619) -0.047
CUX1 isoform 3 (UniProt P39880) 0.065

compound: CCN(CC)Cc1ccc2cc(COC(=O)Nc3ccc(C(=O)NO)cc3)ccc2c1 [givinostat]; assay: as above
How it was run: as §1

log2 fold change, inactive:
DCTN5 (UniProt Q9BTE1) -0.147
CTU1 (UniProt Q7Z7A3) 0.043
CYSTM1 (UniProt Q9H1C7) -0.037
CYB5A (UniProt P00167) 0.045
DCUN1D1 (UniProt Q96GG9) -0.018
DCAF6 isoform 3 (UniProt Q58WW2) -0.058
CSRP3 (UniProt P50461) 0.006
DCAF4L2 (UniProt Q8NA75) -0.013
CTR9 (UniProt Q6PD62) 0.22
DBNL isoform 3 (UniProt Q9UJU6) 0.036
CTSZ (UniProt Q9UBR2) 0.152
DCTN1 isoform 4 (UniProt Q14203) 0.104
CYBA (UniProt P13498) 0.007
CT55 (UniProt Q8WUE5) 0.096
DCAF13 (UniProt Q9NV06) 0.017
CYB561A3 isoform 2 (UniProt Q8NBI2) 0.033
DBT (UniProt P11182) 0.005
CWF19L2 (UniProt Q2TBE0) 0.035
DBN1 isoform 3 (UniProt Q16643) -0.026
CTSH (UniProt P09668) 0.003
CTSC (UniProt P53634) 0.017
DAXX (UniProt Q9UER7) 0.352
CTNND1 (UniProt O60716) 0.035
DCAF16 (UniProt Q9NXF7) -0.016
CSTF2 (UniProt P33240) -0.014
CTSB (UniProt P07858) -0.007
DCTPP1 (UniProt Q9H773) -0.019
CWC25 (UniProt Q9NXE8) 0.098
CYP2S1 isoform 2 (UniProt Q96SQ9) -0.008
DAB2 (UniProt P98082) 0.109
CYP51A1 (UniProt Q16850) 0.007
CTSA (UniProt P10619) 0.117
CUX1 isoform 3 (UniProt P39880) 0.002
